The list shows a part of the results. Rule as the data show it: active = 2-fold of DMSO or more and inactive = the rest. Single values of this set are uncertain. Some low values are a fixed figure set by the source, not a measured ratio.
test system: CM7/1-hgem mouse ES cell-derived cardiomyocytes; experiment: maximal number of mAG-hGem(1/110)-positive cardiomyocytes over 96 h, fold-change vs DMSO; higher = more cardiomyocyte cell cycle activity; settings: 1 µM; 96 (max over 12 h time points) h

`COc1c(-c2coc3cc4c(cc3c2=O)CC(OC(C)=O)C(C)(C)O4)ccc2c1C=CC(C)(C)O2` (stereo not drawn) was tested. Which maximal number did it give?
The maximal number was inactive: 1.

`CN1CCN(c2cc3c(cc2F)c(=O)c(C(=O)O)cn3-c2ccc(F)cc2)CC1` was tested. Which maximal number did it give?
The maximal number was inactive: 1.

How did the maximal number turn out when `CC(=O)SCC(Cc1ccccc1)C(=O)NCC(=O)OCc1ccccc1` (stereo not drawn) was run?
The maximal number was inactive: 1.

Reference: the supplement of paper PMC9549374
